Measurements as given in patent US12076312B2, “Repurposing anti-androgen therapy for COVID-19 and immunotherapy” (Wisconsin Alumni Research Foundation, priority 2021, dated 2024).

How the values were obtained:
Test in all cases: cells
NCI-H222B = details: Hec50, 72 h
NCI-H226 = details: Homo sapiens, NCI-H226, 72 h
NCI-H358 = details: Homo sapiens, NCI-H358, 72 h
NCI-H460 = details: Homo sapiens, NCI-H460, 72 h
NCI-H520 = details: Homo sapiens, NCI-H520, 72 h
NCI-H1299 = details: Homo sapiens, NCI-H1299, 72 h
NCI-H1650 = details: Homo sapiens, NCI-H1650, 72 h
NCI-H1975 = details: Homo sapiens, NCI-H1975, 72 h
NCI-H3122 = details: Homo sapiens, NCI-H3122, 72 h

CNC(=O)c1ccc(N2C(=S)N(c3ccc(C#N)c(C(F)(F)F)c3)C(=O)C2(C)C)cc1F [enzalutamide]
EC50 (NCI-H222B): 68 µM
EC50 (NCI-H226): 60.4 µM
EC50 (NCI-H358): 66.9 µM
EC50 (NCI-H460): 68.7 µM
EC50 (NCI-H520): 90 µM
EC50 (NCI-H1299): 34.2 µM
EC50 (NCI-H1650): 67.1 µM
EC50 (NCI-H1975): 69.5 µM
EC50 (NCI-H3122): 17.3 µM
